# Where cells or extracts were used, other partners may take part. Negatives hold for the conditions tested. For some assays here: Tags and fusion partners may be left off the protein sequences shown. For some assays here: Construct, isoform or probe ends are uncertain for at least one entry.
# Experiments:
# [1] = test system: membrane-bound IgM (mIgM, B-cell receptor) on Ramos cells; assay: flow cytometry; details: Ramos cells, on ice, protein on the cell surface, single-stranded DNA
# [2] = target: T1, PTK7 (protein tyrosine kinase 7) on Jurkat cells (UniProt Q13308); assay: flow cytometry; details: Jurkat cells, on ice, protein on the cell surface, single-stranded DNA
# T1 sequence (looked up, limits assumed): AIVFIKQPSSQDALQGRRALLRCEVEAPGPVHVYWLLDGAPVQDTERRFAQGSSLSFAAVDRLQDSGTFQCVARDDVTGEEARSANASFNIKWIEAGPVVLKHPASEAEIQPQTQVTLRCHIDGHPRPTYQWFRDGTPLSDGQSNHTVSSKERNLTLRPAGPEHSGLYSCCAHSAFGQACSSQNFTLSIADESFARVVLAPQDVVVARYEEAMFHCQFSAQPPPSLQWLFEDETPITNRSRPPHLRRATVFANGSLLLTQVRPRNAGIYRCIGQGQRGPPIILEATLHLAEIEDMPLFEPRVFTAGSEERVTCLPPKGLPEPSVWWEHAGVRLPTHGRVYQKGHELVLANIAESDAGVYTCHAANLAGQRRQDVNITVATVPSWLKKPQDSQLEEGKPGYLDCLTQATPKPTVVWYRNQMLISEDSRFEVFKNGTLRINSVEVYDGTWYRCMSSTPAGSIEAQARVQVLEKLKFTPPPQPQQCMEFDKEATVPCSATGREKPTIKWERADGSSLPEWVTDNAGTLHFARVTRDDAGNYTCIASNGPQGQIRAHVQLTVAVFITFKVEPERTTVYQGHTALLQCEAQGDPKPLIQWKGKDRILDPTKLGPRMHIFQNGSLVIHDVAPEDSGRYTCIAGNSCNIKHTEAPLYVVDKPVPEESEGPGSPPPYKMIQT
# [3] = 5' thiol linked to human IgG1 AKT-Fc N-terminus (hydrazone or oxidative coupling), Fc-M2M2 scrambled control
sequence,measurement,setting,value
AGGAGGATAGTTCGGTGGCTGTTCAGGGTCTCCTCCT [TD05.1 anti-HER2 antibody conjugate],binding result,"[1]; linked to anti-HER2 human IgG1 via N-terminus or lysine by oxidative coupling, antibody-aptamer conjugate, 5 mM MgCl2 DPBS, variant of TD05.1",binds
AGGAGGATAGTTCGGTGGCTGTTCAGGGTCTCCTCCT [TD05.1],binding result,"[2]; 5' thiol linked to human IgG1 AKT-Fc N-terminus (hydrazone or oxidative coupling), Fc-TD05.1 conjugate",no binding
same,binding result,"[1]; 5' thiol linked to human IgG1 AKT-Fc N-terminus (hydrazone or oxidative coupling), Fc-TD05.1 conjugate, 5 mM MgCl2 DPBS with tRNA and BSA, no binding to U266 cells",binds
ATCTAACTGCTGCGCCGCCGGGAAAATACTGTACGGTTAGA [sgc8c anti-HER2 antibody conjugate],binding result,"[2]; linked to anti-HER2 human IgG1 via N-terminus or lysine by oxidative coupling, antibody-aptamer conjugate, 5 mM MgCl2 DPBS, variant of sgc8c",binds
ATCTAACTGCTGCGCCGCCGGGAAAATACTGTACGGTTAGA [sgc8c],binding result,"[2]; 5' thiol linked to human IgG1 AKT-Fc N-terminus (hydrazone or oxidative coupling), Fc-sgc8c conjugate, 5 mM MgCl2 DPBS with tRNA and BSA, no binding to U266 cells",binds
same,binding result,"[1]; 5' thiol linked to human IgG1 AKT-Fc N-terminus (hydrazone or oxidative coupling), Fc-sgc8c conjugate",no binding
CCCTAGAGTGAGTCGTATGACCCTAGAGTGAGTCGTATGAA [M2M2],binding result,[2]; [3],no binding
same,binding result,[1]; [3],no binding

# Reference: patent US20150218258
